One may read the AC50 as the midpoint of the concentration-response curve, whichever way the signal moves.

The assay in a line: qHTS Assay to Find Inhibitors of Chronic Active B-Cell Receptor Signaling. As to conditions: ABC-DLBCL IkBa-CBG/CBR reporter, luminescence ratio (green luciferase fused to IkBa over red control in TMD8 lymphoma cells), 4 h. In a few lines: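 TMD8 human ABC-DLBCL cells with doxycycline-inducible IκBα–green luciferase fusion and unfused red luciferase, in 0.5% FBS medium; compounds up to 46 uM, 4 h at 37C. Green/red luminescence ratio, filter-overlap corrected, fitted to concentration-response curves.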
A general note: qHTS replaces the single test concentration by a dilution series.

Where [1] appears, read: measured here: CBR red luminescence, cell number.
[2] abbreviates: measured here: IkBa-CBG green luminescence.

Some of the results follow. Shown are side measurements of this screen, not its main read-out; they come without a call. The list favours compounds with an active or inconclusive main result. Words in brackets tell the shape of the fitted curve; partial curves, single points and poor fits give uncertain potencies.

Consider `Cc1ccc(-c2c3c(=O)n(C)c(=O)n(C)c3cn2-n2cnnc2)cc1`, for which the AC50 under setting [1] was 25.1 µM [falling, single point].
Same read-out and setting: then `NNC(=O)C1CC(O)CN1S(=O)(=O)c1ccc2ccccc2c1` (centres undefined), with 25.9 µM [rising, single point]; and `O=C(CCn1c(=S)[nH]c2ccccc2c1=O)N1CCCCC1`, with 31.6 µM [rising, single point].
On to `CN(C)S(=O)(=O)c1ccc(NC(=O)CN2CCN(c3ccccn3)CC2)cc1`, for which the AC50 under setting [1] is 3.98 µM [falling, single point].
Turning to `COCCNC(=S)N/N=C(\C)c1ccc(OC(F)F)cc1`, the AC50 under setting [2] is 31.6 µM [falling, single point].
As to `Cc1cccc(OCC(=O)N2CCCc3ccccc32)c1`, the AC50 under setting [1] was 0.251 µM [rising, full curve, poor fit].
Same read-out and setting: under `Cc1cc(N(C)C)c(C#N)c(NCc2ccccc2)n1` stands 8.91 µM [rising, partial curve].
Turning to `CCCOc1ccc2c(CC)cc(=O)oc2c1C`, the AC50 under setting [1] was 8.2 µM [rising, partial curve, poor fit] and the AC50 under setting [2] is 3.26 µM [falling, partial curve, poor fit].
`CCN1CCN(c2cc(C)c3cc(NC(=O)Cc4ccc(OC)c(OC)c4)ccc3n2)CC1`: the AC50 under setting [1] was 13 µM [rising, partial curve, poor fit].
Same read-out and setting: then `O=C(N/N=C/c1ccc(Br)s1)c1ccccn1`, with 8.2 µM [falling, partial curve]; and `Cc1cc(-c2ccccc2)nc(N/N=C/c2cccnc2)n1`, with 1.58 µM [falling, partial curve, poor fit]; and `COc1ccc2nc(-c3ccccc3)cc(C(=O)N3CCC3)c2c1`, with 0.731 µM [rising, partial curve, poor fit].
On the same count and under the same terms, under `O=C(/C=C/c1ccc(F)cc1)N1CCN(c2ccccn2)CC1` stands 3.26 µM [rising, single point].
On to `CCS/C(N)=N/N=C/c1cc(C)ccc1O`, for which the AC50 by setting is: under setting [1], 18.4 µM [falling, single point]; under setting [2], 29.1 µM [falling, single point].
As to `COc1cccc(C(=O)Nc2c(C(N)=O)oc3ccccc23)c1`, the AC50 under setting [1] was 1.46 µM [falling, partial curve].
The same measure, in the same setting: then `COc1cc(/C(C)=N/NC(=O)CSc2nc3ccccc3[nH]2)ccc1O`, with 35.5 µM [falling, single point].
On to `O=C(Nc1ccccc1)c1cccc(N2C(=O)C3C4C=CC(C4)C3C2=O)c1` (centres undefined), for which the AC50 under setting [1] was 12.6 µM [falling, partial curve].
Still for that read-out and setting: then `CC1C(=O)N(Cc2ccc(F)cc2)c2ccccc2N1C(=O)c1c(F)cccc1F` (centres undefined), with 22.4 µM [falling, single point].
Same read-out and setting: under `CCc1cc(C(=O)Nc2ccc(OC)nc2)sc1C` stands 2.91 µM [rising, partial curve, poor fit].
For `COc1ccccc1NC(=O)C1=C(C)Nc2nnnn2C1c1cccc(Br)c1` (centres undefined), the AC50 under setting [1] is 11.2 µM [falling, partial curve].
Consider `CCOC(=O)c1csc(NC(=O)c2ccc(OCC)cc2)n1`, for which, under setting [1], the AC50 is 11.2 µM [falling, partial curve].
Consider `COc1ccccc1-c1ccc(Nc2ccc(C(=O)N3CCOCC3)cc2)nn1`, for which the AC50 under setting [1] was 8.2 µM [falling, partial curve].
On the same count and under the same terms, under `CN(c1ccccc1)S(=O)(=O)c1ccc(Cl)c(C(=O)Nc2ccc(-c3nc4ccccc4[nH]3)cc2)c1` stands 2.31 µM [falling, full curve].
The same measure, in the same setting: under `Cn1cnnc1SCC(=O)Nc1ccc(S(=O)(=O)N2CCCC2)cc1` stands 10.3 µM [falling, partial curve, poor fit].
Turning to `O=C(O)/C=C/C(=O)NC1CCS(=O)(=O)C1` (centres undefined), the AC50 under setting [1] was 0.731 µM [falling, partial curve, poor fit].
The same measure, in the same setting: under `O=C(CSc1nc2ccccc2[nH]1)Nc1ccc2c(c1)CCC2` stands 29.1 µM [falling, single point]; under `Cc1[nH]c2ccc(F)cc2c1CCN1C(=O)OC(C)(C)C1(C)O` (centres undefined), 1.12 µM [rising, partial curve, poor fit].
On to `O=C1COc2ccc(C(=O)COC(=O)/C=C/c3ccc(Br)o3)cc2N1`, for which the AC50 under setting [1] is 5.17 µM [rising, full curve].
The same measure, in the same setting: under `CN(C)CC/C=C1/c2ccccc2COc2ccccc21` stands 25.1 µM [falling, single point]; under `O=C(Oc1ccc(-c2nnco2)cc1)N(c1ccccc1)c1ccccc1`, 1.16 µM [rising, partial curve, poor fit].
For `CC1=C/C(=C(/c2ccc(O)c(C)c2)c2ccccc2S(=O)(=O)O)C=CC1=O`, the AC50 under setting [1] was 16.4 µM [rising, single point].
Regarding `O=C1CSC(=S)N1c1ccc(O)cc1`, the AC50 under setting [1] was 10 µM [falling, partial curve, poor fit].
Same read-out and setting: then `CN(Cc1ccccc1)C(=O)CCCn1c(=O)c2cccn2c2cccnc21`, with 0.562 µM [rising, full curve]; and `O=C(NOCc1ccccc1)c1ccc(Cl)cc1Cl`, with 0.517 µM [rising, full curve, poor fit]; and `CN(C(=O)CSc1nnc(N)s1)C1CCCCC1`, with 14.1 µM [rising, single point].
Still for that read-out and setting: then `CCO[C@H]1OC(C(=O)N2CCCCCCC2)=C[C@@H](c2csc3ccccc23)[C@@H]1CCCO`, with 0.0891 µM [falling, full curve, poor fit]; and `COc1ccccc1N1CC(C(=O)Nc2ccc(N3CCOCC3)cc2)CC1=O` (centres undefined), with 0.58 µM [rising, full curve]; and `CC(C)c1ccc(C(=O)NCc2ccc(Cl)cc2)cc1`, with 14.6 µM [rising, partial curve].
The same measure, in the same setting: under `COc1cc(C(N)=O)cc(Cl)c1OCc1ccccc1` stands 16.4 µM [rising, partial curve]; under `O=C1N/C(=C/c2cccs2)C(=O)N1Cc1ccccc1F`, 0.501 µM [falling, full curve, poor fit].
In the case of `Cc1ccc(-n2cc(CN3CCC(CO)(Cc4ccccc4)CC3)cn2)cc1`, the half-maximal activity concentration (AC50) under setting [1] was 0.282 µM [falling, partial curve, poor fit].
On the same count and under the same terms, under `COC(=O)c1ccc(-c2nc3cc(N)ccc3o2)cc1` stands 2.59 µM [rising, partial curve].
Still for that read-out and setting: under `O=c1oc2ccccc2c(N2CCCCC2)c1[N+](=O)[O-]` stands 9.2 µM [falling, partial curve, poor fit]; under `S=C(NC1CC1)NC1CCCc2ccccc21` (centres undefined), 7.94 µM [falling, partial curve]; under `COc1ccc2[nH]c(C)c(CCNC(=S)Nc3ccc(F)cc3)c2c1`, 35.5 µM [falling, partial curve, poor fit].
For `COc1ccc(Cl)cc1NC(=O)CCCNC(=O)c1ccc(Cl)cc1`, under setting [1], the AC50 was 1.58 µM [rising, partial curve, poor fit].
On to `O=C(c1ccc(Br)o1)N1CCN(c2ccccn2)CC1`, for which the AC50 under setting [1] is 1.3 µM [rising, full curve, poor fit].
On to `CNC(=O)c1cc2cc(OC)ccc2n1CCN(Cc1ccccc1)Cc1ccccc1`, for which, under setting [1], the AC50 is 18.4 µM [rising, single point].
On the same count and under the same terms, then `O=C(Nc1ccc(Cl)cc1Cl)C1=Cc2ccccc2OC1`, with 7.31 µM [rising, partial curve, poor fit]; and `CCC(C(=O)NCc1ccc(F)cc1)N(CCc1ccccc1)C(=O)c1snc(C(N)=O)c1N` (centres undefined), with 35.5 µM [falling, partial curve, poor fit].
On the same count and under the same terms, under `COC(=O)c1cccc(NC(=O)NC2CCCN2S(=O)(=O)c2ccc(Cl)cc2)c1` (centres undefined) stands 25.9 µM [falling, single point]; under `O=C(Nc1cccc(Cl)c1)c1ccc2ncsc2c1`, 22.4 µM [falling, single point]; under `O=C(O)c1ccc2c(c1Sc1ccccc1)C(=O)c1ccccc1C2=O`, 17.8 µM [rising, single point].
With `CCCCCCC(=O)N(O)C1CC(=O)N(c2ccccc2)C1=O` (centres undefined), the AC50 under setting [1] was 11.2 µM [falling, partial curve] and the AC50 under setting [2] was 35.5 µM [rising, partial curve, poor fit].
Consider `CCCC(=O)Nc1cccc(NC(=O)c2ccc(C)c([N+](=O)[O-])c2)c1`, for which the AC50 under setting [1] was 35.5 µM [falling, single point].
On the same count and under the same terms, under `CCOc1ccccc1NC(=O)Nc1ccc(CC#N)cc1` stands 2.24 µM [falling, partial curve, poor fit].
On the same count and under the same terms, then `CC(C)C(=O)Nc1nnc(NC(=S)Nc2ccccc2)s1`, with 14.1 µM [falling, single point]; and `Nc1nc(CN2CCCCCC2)nc(Nc2ccccc2)n1`, with 23.1 µM [falling, single point]; and `O=C(N/N=C/c1ccc(-c2ccccc2[N+](=O)[O-])o1)[C@H]1C[C@@H]1c1ccccc1`, with 23.1 µM [falling, partial curve].
`CC1CCCN(c2ccc([N+](=O)[O-])cc2C(=O)c2ccccc2)C1` (centres undefined): the concentration at half-maximal activity (AC50) runs as follows: under setting [1], 8.2 µM [rising, single point]; under setting [2], 7.31 µM [falling, partial curve].
As for `C=CCn1c2ccccc2c2nnc(SCCCn3c(=O)[nH]c4ccccc43)nc21`, the concentration at half-maximal activity (AC50) runs as follows: under setting [1], 16.4 µM [falling, partial curve]; under setting [2], 18.4 µM [rising, partial curve, poor fit].
In the case of `COc1cccc(CNC(=O)c2c[nH]n3c(=O)c(Cl)c(C)nc23)c1`, the AC50 under setting [1] is 25.9 µM [falling, single point].
Same read-out and setting: then `Nc1ncnc2c1cnn2-c1ccccc1`, with 12.6 µM [falling, partial curve, poor fit]; and `Cc1ccc(Cl)cc1N1CCN(C(=O)c2ccc3nc[nH]c3c2)CC1`, with 29.1 µM [falling, partial curve, poor fit].

These data come from PubChem BioAssay AID493014 (National Center for Advancing Translational Sciences (NCATS), 2011).
